In article PMC12040169 (PLOS Biology, 2025):
This is one part of the list.

The compounds below were run on T1, CTL2-GFP (C. trachomatis L2/434/Bu, GFP-expressing). Settings: bulk GFP, single well; 28.5 h, 10 µM; inhibitor.
T1 construct: L2/434/Bu, GFP-expressing
Design: species or system HeLa; Intracellular C. trachomatis growth in HeLa cells, bulk GFP fluorescence relative to DMSO
With O=C(NCC1COc2ccccc2O1)N1CCN(c2cc(C(F)(F)F)ccn2)CC1 (centres unmarked) [CBK156432] the “% of control remaining” value was 125.243%.
In the case of Cc1nc(S(=O)(=O)CCn2cccn2)n(CC2CCCO2)c1C (centres unmarked) [CBK305141], the “% of control remaining” value was 129.303%.
Cc1ccc(CN2CCC(CN(C)C(=O)c3cc4sccc4[nH]3)CC2)o1 [CBK307522] was tested, and the “% of control remaining” value was 148.55%.
With COc1cc2c3c([nH]c2cc1F)C1(CCN(CCOc2ccccc2)C1)NCC3 (centres unmarked) [CBK115687T] the “% of control remaining” value was 98.7977%.
CC(NC(=O)/C(=C\c1ccc(Cl)cc1)NC(=O)c1ccccc1Br)C(=O)O (centres unmarked) [CBK264582] was tested, and the “% of control remaining” value was 100%.
For Cc1ccc(-c2csc(=Nc3ccc(C(=O)O)cc3)n2Cc2ccccc2)cc1 [CBK296062], the “% of control remaining” value was 136.961%.
For Brc1ccc(-c2ccnc3nc(-c4ccncc4)nn23)cc1 [CBK288623], the “% of control remaining” value was 114.834%.
With O=C(NCCc1ccccc1)C1CCN(C(=O)c2cccc(F)c2)CC1 [CBK307583] the “% of control remaining” value was 126.76%.
Cc1cccc(N2CCN(C(=O)CCc3ccsc3)C(C)C2)n1 (centres unmarked) [CBK304069] was tested, and the “% of control remaining” value was 94.2817%.
With CCn1c(CN2CCOCC2)nnc1SCC(=O)Nc1cccc(Br)c1 [CBK269740] the “% of control remaining” value was 103.924%.
In the case of O=C(CSc1nnc(-c2cccnc2)n1-c1ccccc1)Nc1cc(C(F)(F)F)ccc1Cl [CBK267540], the “% of control remaining” value was 104.663%.
Cc1noc(C)c1CN1CCC(C(O)c2ccccc2)CC1 (centres unmarked) [CBK305783] was tested, and the “% of control remaining” value was 119.125%.
For Cc1n[nH]c(C)c1CCC(=O)N/N=C/c1ccccn1 [CBK262887], the “% of control remaining” value was 103.292%.
For COC(=O)c1c(NC(=O)C(Cc2ccccc2)N2C(=O)c3ccccc3C2=O)sc2c1CCC2 (centres unmarked) [CBK265744], the “% of control remaining” value was 100%.
In the case of O=C1NC2(CCN(C(=O)Cc3ccc(-c4ccccc4)cc3)CC2)Nc2ccccc21 [CBK286309], the “% of control remaining” value was 96.8546%.
CC(C)(C)NC(=O)COc1ccc(CNCc2ccc(C(=O)O)cc2)cc1 [CBK287204] was tested, and the “% of control remaining” value was 137.99%.
Cc1ccc(N2CC(c3nc(-c4ccncc4)no3)CC2=O)cc1Cl (centres unmarked) [CBK288582] was tested, and the “% of control remaining” value was 105.15%.
With O=C(O)c1ccc(N(Cc2ccccc2)S(=O)(=O)c2ccccc2)cc1 [CBK265375N] the “% of control remaining” value was 105.167%.
In the case of N#Cc1cccc(NC(=O)NC[C@H]2C[C@@H]3CC[N@]2C[C@@H]3CN2CCOCC2)c1 [CBK288763], the “% of control remaining” value was 124.072%.
Cc1cc(S(=O)(=O)NC2CCCCC2)ccc1OCC(=O)O [CBK267832] was tested, and the “% of control remaining” value was 97.9866%.
For Cc1nn(CC(=O)NC2CC2)c(=O)c2cc3ccsc3n12 [CBK284026], the “% of control remaining” value was 138.037%.
In the case of Cc1cc(NC(=O)C(=O)NC(C)c2ccccc2)ccc1Br (centres unmarked) [CBK267084], the “% of control remaining” value was 154.4%.
In the case of O=C1CC[C@@H](C(=O)N2CCc3nc(-c4ccccc4F)sc3C2)N1 [CBK281891], the “% of control remaining” value was 166.565%.
In the case of CN(C)CCCN1C(=O)C(O)=C(C(=O)c2cccs2)C1c1cccnc1 (centres unmarked) [CBK264511], the “% of control remaining” value was 100%.
In the case of CCCCc1ccc(Nc2csc(N)n2)cc1 [CBK020594], the “% of control remaining” value was 14.1935%.
With Cc1cc(C)n2c(Nc3ccc(S(N)(=O)=O)cc3)nnc2n1 [CBK267601] the “% of control remaining” value was 107.138%.
CCOC(=O)N1CCN(C(=O)c2c(C)nn(C)c2Cl)CC1 [CBK304522] was tested, and the “% of control remaining” value was 140.9%.
With CC(C)N1CCC(CNC(=O)c2cc(C3CCCCC3)no2)CC1 [CBK283293] the “% of control remaining” value was 103.003%.
With COc1ncccc1C(=O)N1CCN(c2ccccc2)CC1 [CBK200166] the “% of control remaining” value was 139.713%.
With O=C(O)CCCCC/N=C1\CCc2ccccc2N1 [CBK286773] the “% of control remaining” value was 118.055%.
In the case of O=C(CCN1Cc2ccccc2C1=O)NCCN1CCc2ccccc21 [CBK282632], the “% of control remaining” value was 141.828%.
With CCCCN(C)c1c(C)nc2ccc(C(=O)N(C)CCCN(C)C)cn12 [CBK146006] the “% of control remaining” value was 122.085%.
With C[C@H](NC1=NC(=O)C2(CCN(Cc3ccccc3)CC2)O1)c1ccccc1 [CBK122798T] the “% of control remaining” value was 102.653%.
Nc1ncc(-c2cccc(CO)c2)nc1NC1CCCCC1 [CBK063650] was tested, and the “% of control remaining” value was 189.189%.
In the case of NC(=O)c1c(NC(=O)Cn2cnc([N+](=O)[O-])n2)sc2c1CCCC2 [CBK027935], the “% of control remaining” value was 90.245%.
In the case of O=C(O)c1cc(S(=O)(=O)Nc2cccc(-c3cnco3)c2)c(F)cc1Cl [CBK067126], the “% of control remaining” value was 121.6%.
In the case of O=C1c2ccccc2NC(c2ccccc2F)N1O (centres unmarked) [CBK288377], the “% of control remaining” value was 139.188%.
For COc1cccc(-n2c(=O)[nH]c3c(C(N)=O)nc(-c4ccccc4)nc32)c1 [CBK287740], the “% of control remaining” value was 98.0706%.
With COCCN1C(=O)c2ccc(C(=O)Nc3ccc(O)c(C(=O)O)c3)cc2C1=O [CBK268344] the “% of control remaining” value was 143.732%.
COc1cc(S(=O)(=O)Nc2ccc(CC(=O)O)cc2)ccc1Cl [CBK287019] was tested, and the “% of control remaining” value was 117.575%.
Cc1cc(CN(C)C(=O)c2cc3sccc3[nH]2)no1 [CBK304340] was tested, and the “% of control remaining” value was 156.951%.
For CS(=O)(=O)Cc1cccc(C(=O)Nc2ccc(Oc3ccccc3)cc2)c1 [CBK297111], the “% of control remaining” value was 140.892%.
In the case of Cc1ccc(N2C(=O)c3ccccc3NC23C(=O)N(C)c2ccc(Br)cc23)cc1 (centres unmarked) [CBK103752], the “% of control remaining” value was 99.83%.
In the case of Cc1ccc(NC(=O)c2cccnc2)c(C(=O)O)c1 [CBK000177], the “% of control remaining” value was 85.5997%.
With Nc1nc(=O)c2cnc3c(Cl)cccc3c2s1 [CBK291229] the “% of control remaining” value was 140.52%.
With CSCCCNC(=O)N1CCN(CCN2CCOCC2)CC1 [CBK155669] the “% of control remaining” value was 129.534%.
For Nc1cc2cccnc2c(-c2ccsc2)n1 [CBK081218], the “% of control remaining” value was 139.012%.
In the case of C=CCOc1ccc(CNCCN2CCOCC2)cc1 [CBK278215C], the “% of control remaining” value was 129.019%.
For CCc1nccnc1OC [CBK089673], the “% of control remaining” value was 142.388%.
In the case of O=C1NCCNC(=O)C2(C/C=C/COc3ccccc31)CCN(Cc1ccccc1F)CC2 [CBK292024], the “% of control remaining” value was 141.606%.
For Cc1cc(NC(=O)CCN2CCC(N3CCNC3=O)CC2)no1 [CBK304909], the “% of control remaining” value was 139.086%.
For CCOC(=O)Cc1csc(NS(=O)(=O)/C=C/c2ccccc2)n1 [CBK000072], the “% of control remaining” value was 116.913%.
With C=CCN1C(=O)CC2(C1=O)C(=O)N(Cc1csc(-c3ccccc3)n1)c1ccc(Cl)cc12 (centres unmarked) [CBK075445] the “% of control remaining” value was 201.253%.
For O=C(c1ccc(COc2ccc(I)cc2)cc1)N1CCCCCC1 [CBK058852], the “% of control remaining” value was 121.573%.
With CCn1nc(C)c(C(C)NC(=O)CC(C)n2nc(C)cc2C)c1C (centres unmarked) [CBK281533] the “% of control remaining” value was 151.471%.
FC(F)(F)c1ccnc(SCCc2cnccn2)n1 [CBK105300] was tested, and the “% of control remaining” value was 90.5731%.
With CCOC(=O)Cn1[nH]c(COC(C)(C)C)c(Cc2c(Cl)cccc2Cl)c1=O [CBK103551] the “% of control remaining” value was 100.031%.
Cc1cc(C)n(-c2ccnc(NCc3cccnc3)n2)n1 [CBK288614] was tested, and the “% of control remaining” value was 92.8389%.
With Cc1ccc(C(=O)O)cc1NC(=S)NC(=O)c1ccc(-c2ccccc2)cc1 [CBK264997] the “% of control remaining” value was 118.023%.
O=C(CC1CCCCC1)N1CCCC1c1n[nH]cc1-c1ccncc1 (centres unmarked) [CBK283429] was tested, and the “% of control remaining” value was 150.992%.
O=C1OC(c2ccco2)=N/C1=C/c1ccccc1OC(=O)c1ccco1 [CBK263980] was tested, and the “% of control remaining” value was 100%.
For CCOCCN1C[C@@H](C(F)(F)F)[C@H](C(=O)O)C1 [CBK287033], the “% of control remaining” value was 124.89%.
With CC(C)Cn1ncc2cc(C(=O)Nc3cccnc3N(C)C)cnc21 [CBK304891] the “% of control remaining” value was 101.133%.
With COc1ccc(Nc2ccc(-c3cnc(OC)nc3OC)cn2)c(C)c1 [CBK036827] the “% of control remaining” value was 111.809%.
For CCN(C(=O)c1cc(C)nc2ccccc12)C1CCN(C)CC1 [CBK281920], the “% of control remaining” value was 151.374%.
For COCCNC(=O)c1ccc(-c2cc(C(C)C)ccc2OC)nc1NCC1CC1 [CBK106256], the “% of control remaining” value was 89.1035%.
In the case of CCc1nc2c(OCC3CCCCO3)cccn2c1N(C)C(=O)c1ccc2c(c1)OCO2 (centres unmarked) [CBK147860], the “% of control remaining” value was 179.149%.
CCOc1ccc(S(=O)(=O)N2CCC(C(=O)NCCO)CC2)cc1 [CBK269817] was tested, and the “% of control remaining” value was 141.135%.
In the case of Cc1cccn2cc(CSc3nnc4[nH]c5ccccc5n34)nc12 [CBK296996], the “% of control remaining” value was 114.69%.
With CC(C)(C)OC(=O)N[C@@H]1C(=O)OC(C(O)CO)[C@@H]1O (some centres unmarked) [CBK008178] the “% of control remaining” value was 128.138%.
For Cn1ncc2c1CCCN(C(=O)c1cccc(C(F)(F)F)c1)C2 [CBK282252], the “% of control remaining” value was 135.019%.
CN(C)S(=O)(=O)Nc1ccc2c(ccn2Cc2ccccc2)c1 [CBK155765] was tested, and the “% of control remaining” value was 88.2806%.
For Cc1ccc(CN(CCCn2ccnc2)Cc2[nH]cnc2C)s1 [CBK283138], the “% of control remaining” value was 120.629%.
With NC(=O)c1ccccc1NC(=O)CN(c1cccc(Br)c1)S(=O)(=O)c1ccccc1 [CBK265263] the “% of control remaining” value was 112.606%.
In the case of CC(C)c1ccc(-c2cncc(NCCCO)n2)cc1 [CBK037937], the “% of control remaining” value was 140.507%.
For CC(C)(C)C(=O)Nc1cccc(OC(F)(F)C(F)Cl)c1 (centres unmarked) [CBK018091], the “% of control remaining” value was 135.171%.
With COc1cc(OC)c(OC)cc1CN1CCN(Cc2ccco2)CC1 [CBK074509G] the “% of control remaining” value was 135.068%.
With N#Cc1c(NC(=O)C(=O)NCc2ccccn2)sc2c1CCCC2 [CBK269360] the “% of control remaining” value was 129.78%.
Cc1cc(OCC(=O)O)c(C)c2c1CC[C@@H]([C@H](C)C(=O)N1CCC(O)CC1)C2 [CBK289433] was tested, and the “% of control remaining” value was 124.76%.
COc1ccccc1-c1cccc(NCC(c2cccnc2)N(C)C)n1 (centres unmarked) [CBK037770] was tested, and the “% of control remaining” value was 213.462%.
